Results are given in words; binding and its absence hold for the method and conditions named. Binding seen in cells or lysates may run through a third protein. Some results given as binding are weak or reduced against the parent protein; the word gives no strength.
Target: DNA methyltransferase 1 (DNMT1) (UniProt P13864)
Test: co-IP; Suv39h1 and Dnmt1 overexpressed in HEK293 cells; 1 mg lysate in modified RIPA buffer (50 mM Tris-HCl, 1 mM EDTA, 1% Nonidet P-40, 0.25% sodium deoxycholate, 150 mM NaCl) incubated with anti-DNMT1 antibody and protein A/G agarose beads at 4°C overnight; immunoblot with anti-SUV39H1

The chains behind the UniProt entries cited, without tags or fusion partners.
UniProt P13864: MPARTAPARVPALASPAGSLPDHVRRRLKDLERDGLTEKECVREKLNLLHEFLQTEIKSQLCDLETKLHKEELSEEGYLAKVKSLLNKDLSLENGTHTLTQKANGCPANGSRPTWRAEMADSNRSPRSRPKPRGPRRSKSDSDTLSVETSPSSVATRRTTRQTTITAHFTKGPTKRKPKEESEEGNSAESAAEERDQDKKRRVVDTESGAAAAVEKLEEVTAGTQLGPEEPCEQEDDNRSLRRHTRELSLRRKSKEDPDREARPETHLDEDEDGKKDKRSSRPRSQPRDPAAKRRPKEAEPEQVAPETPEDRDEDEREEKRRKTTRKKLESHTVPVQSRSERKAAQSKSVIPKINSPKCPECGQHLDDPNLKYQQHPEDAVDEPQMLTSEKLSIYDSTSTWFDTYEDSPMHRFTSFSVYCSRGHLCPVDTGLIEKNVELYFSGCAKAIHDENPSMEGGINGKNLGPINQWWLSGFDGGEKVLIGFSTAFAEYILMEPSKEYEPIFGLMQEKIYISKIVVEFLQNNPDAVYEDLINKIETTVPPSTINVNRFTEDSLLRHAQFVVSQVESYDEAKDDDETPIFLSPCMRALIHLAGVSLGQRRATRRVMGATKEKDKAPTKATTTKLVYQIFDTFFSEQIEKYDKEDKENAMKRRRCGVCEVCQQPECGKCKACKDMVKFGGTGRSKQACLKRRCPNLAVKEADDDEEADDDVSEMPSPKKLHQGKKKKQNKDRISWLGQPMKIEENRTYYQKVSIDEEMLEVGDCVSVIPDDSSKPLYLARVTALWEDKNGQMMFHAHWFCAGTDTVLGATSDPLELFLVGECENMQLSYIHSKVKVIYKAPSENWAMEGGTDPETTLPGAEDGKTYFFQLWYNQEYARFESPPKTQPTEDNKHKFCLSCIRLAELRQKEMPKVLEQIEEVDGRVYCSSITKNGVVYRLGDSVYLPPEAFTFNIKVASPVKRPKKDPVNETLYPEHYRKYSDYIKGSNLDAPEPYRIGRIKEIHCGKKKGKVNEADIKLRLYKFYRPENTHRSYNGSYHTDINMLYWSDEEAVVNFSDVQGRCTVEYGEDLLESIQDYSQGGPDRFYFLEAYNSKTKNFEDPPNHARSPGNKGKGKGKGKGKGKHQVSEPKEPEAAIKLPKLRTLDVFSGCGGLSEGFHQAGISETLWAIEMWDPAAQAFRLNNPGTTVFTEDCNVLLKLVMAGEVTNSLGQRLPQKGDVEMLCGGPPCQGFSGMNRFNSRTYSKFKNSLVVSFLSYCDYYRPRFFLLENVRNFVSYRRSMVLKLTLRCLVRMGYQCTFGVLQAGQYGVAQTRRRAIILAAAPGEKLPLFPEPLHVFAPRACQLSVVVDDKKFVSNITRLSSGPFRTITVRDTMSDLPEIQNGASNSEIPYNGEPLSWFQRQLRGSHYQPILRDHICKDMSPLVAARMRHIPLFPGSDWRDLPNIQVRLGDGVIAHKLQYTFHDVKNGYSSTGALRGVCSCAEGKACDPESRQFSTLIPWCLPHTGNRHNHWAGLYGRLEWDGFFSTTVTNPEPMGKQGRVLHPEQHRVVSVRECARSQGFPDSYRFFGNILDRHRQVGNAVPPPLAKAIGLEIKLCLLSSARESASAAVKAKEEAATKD

binding: binds
B1: SUV39H1 (suppressor of variegation 3-9 1) (enzyme, UniProt O54864 1-412)
chain: MAENLKGCSVCCKSSWNQLQDLCRLAKLSCPALGVSKKNLYDFEVEYLCDYKKIREQEYYLVKWRGYPDSENTWEPRQNLKCIRVLKQFHKDLERELVRRHRRSKPPRHLDPNLANYLVQKAKQRRALQRWEQELNAKRSHLGRITVENEVDLDGPPRSFVYINEYRVGEGITLNQVAVGCECQDCLLAPTGGCCPGASLHKFAYNDQGQVRLKAGQPIYECNSRCCCGYDCPNRVVQKGIRYDLCIFRTNDGRGWGVRTLEKIRKNSFVMEYVGEIITSEEAERRGQIYDRQGATYLFDLDYVEDVYTVDAAYYGNISHFVNHSCDPNLQVYNVFIDNLDERLPRIAFFATRTIWAGEELTFDYNMQVDPVDMESTRMDSNFGLAGLPGSPKKRVRIECKCGTTACRKYLF
